# From PubChem BioAssay AID2685 (National Center for Advancing Translational Sciences (NCATS), 2010)
# This is one part of the list. Shown are side measurements of this screen, not its main read-out; they come without a call. The list favours compounds with an active or inconclusive main result. Potencies come from curve fits of mixed quality, noted in brackets.
# Experiment: qHTS Assay for Lipid Storage Modulators in Drosophila S3 Cells;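 as to cell number change: cells counted by Cell Tracker Red CMTPX staining in the red channel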
# Settings: BODIPY lipid droplet fluorescence, 18-24 h; for cell number change: measured here: cell count max response, cells fed with added oleic acid
# Summary of the method: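 Drosophila S3 cells got compounds at several concentrations plus oleic acid (400 uM solution). Laser-scanning cytometry with 488 nm excitation read lipid droplets at 500-530 nm and cells at 575-640 nm. Percent activity was relative to 20 uM Triacsin C.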
# [1] = measured here: cell number channel AC50, cells fed with added oleic acid
# [2] = measured here: lipid fluorescence (Fed channel) AC50, cells fed with added oleic acid
SMILES,cell number change [%],AC50 [1],AC50 [2]
CC1=C(C(=O)O)N2C(=O)C(NC(=O)c3nn(C)cc3[N+](=O)[O-])C2SC1 (configuration not stated),-36.4,"0.146 µM [falling, full curve, poor fit]",–
Cc1ccc(NS(=O)(=O)c2cccs2)c(C)c1,21.8,–,–
COc1ccc(/C=C/C(=O)NC(=S)NNC(=O)c2ccco2)cc1OC,-11.9,–,"6.51 µM [falling, single point]"
CC(COc1cccc2ccccc12)CN1CCN(C)CC1 (configuration not stated),0.374,–,–
COc1ccc(C[C@H]2CN3C(=NC[C@@H]3Cc3ccc(O)cc3)N2C[C@H](C)NC(=O)c2ccc(C)c(Br)c2)cc1,-32.6,"29.1 µM [falling, single point]","3.26 µM [falling, partial curve, poor fit]"
CCc1ccc(N2CC(C(=O)N3CCCC3)CC2=O)cc1 (configuration not stated),9.21,–,"5.62 µM [rising, single point]"
CCCCn1c(N)c(N(CC)C(=O)C(c2ccccc2)c2ccccc2)c(=O)[nH]c1=O,–,"0.082 µM [rising, partial curve, poor fit]",–
COc1ccc(OC)c(S(=O)(=O)N2CCC(C(=O)N3CCCC3)CC2)c1,-5.26,–,–
COc1ccc(NC(=O)Cn2c3ccccc3c3nc4n(c(=O)c32)CCS4)cc1OC,177,"29.1 µM [rising, single point]","29.1 µM [falling, single point]"
c1cn2cc(CSC3CCCCC3)nc2s1,-13.5,–,"29.1 µM [rising, single point]"
CCc1cc2c(Nc3ccc(O)cc3)nc(C)nc2s1,-33.5,"20.6 µM [falling, single point]",–
Cc1cc(C)n2c(SCc3ccc(C#N)cc3)nnc2n1,11.6,–,–
Cc1oc2c(c1C(=O)NCc1cccnc1)C(=O)c1ccccc1C2=O,-16.2,–,"5.8 µM [falling, full curve]"
O=C(Nc1ccccc1)N(C1=NCCC1)c1ccc(OC(F)F)cc1,19.5,–,"16.4 µM [rising, single point]"
Cc1ccc(C)c(C(=O)CSc2n[nH]c(C)n2)c1,-6.42,–,"29.1 µM [rising, single point]"
COC(=O)c1ccc(CNC(=O)c2ccc3c(c2)OCCO3)cc1,-0.806,–,–
O=C(COC(=O)C12CC3CC(CC(C3)C1)C2)NCc1ccco1,-44.2,"0.411 µM [falling, full curve]","29.1 µM [falling, single point]"
O=c1c2c(nc3c(-c4cccc(Br)c4)c[nH]n13)CCCC2,–,"0.82 µM [rising, full curve, poor fit]",–

# Full records, looked up by structure. Values in the order: cell number change [%]	AC50 [1]	AC50 [2]
# `O=C(Nc1ccccc1)N(C1=NCCC1)c1ccc(OC(F)F)cc1` reads 19.5	–	16.4 µM [rising, single point]
# `COc1ccc(C[C@H]2CN3C(=NC[C@@H]3Cc3ccc(O)cc3)N2C[C@H](C)NC(=O)c2ccc(C)c(Br)c2)cc1` reads -32.6	29.1 µM [falling, single point]	3.26 µM [falling, partial curve, poor fit]
